{"source": "PubChem BioAssay AID504764 (Drosophila RNAi Screening Center, 2011)", "purpose": "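Knock-downs that raise or lower a Notch target reporter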 (primary screen)", "cell system": "Drosophila Kc167 cells", "knock-down reagent": "long dsRNA against Drosophila genes", "timing": "about 5 days (4 days dsRNA, then 24 h after transfection)", "treatment": "transfection of constitutively active membrane-tethered Notch lacking the extracellular domain, read 24 h later", "measurement": "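Light from a Notch-responsive E(spl)m3 luciferase reporter under active Notch, with control-promoter and no-Notch reporter wells to normalise; raw counts from paired wells a and b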", "scale": "induced reporter light, run 1, well a and induced reporter light, run 1, well b: higher = more light from the Notch target reporter with active Notch; control promoter light, run 1, well a and control promoter light, run 1, well b: higher = more light from the viral control promoter (cell number, transfection, viability); uninduced reporter light, run 1, well a: higher = more light from the Notch target reporter without active Notch", "active means": "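Wells with low control signal or poorly matching duplicates excluded; duplicates averaged; per source plate, z beyond ±2 for induced/control log2 ratio or beyond ±1.8 for induced/uninduced marks a hit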", "calls": "active = modifier hit (raised or lowered Notch signal); inactive = not a hit", "note": "The screen tested about 22,000 reagents; this is an unselected part of those that have a named target and a result. Of all reagents, 403 (1.9%) were called active. 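Unnormalised raw counts per well; ratio z-scores behind the hit calls and whether each hit raises or lowers signal are not deposited.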 Unmarked entries are inactive. Reagent sequences are not shown. Not given: the amount of reagent."}
{"Target gene": "Octalpha2R (alpha2-adrenergic-like octopamine receptor)", "DRSC id": "DRSC13319", "induced reporter light, run 1, well a": "54485 (active)", "induced reporter light, run 1, well b": 51610, "control promoter light, run 1, well a": 91675, "control promoter light, run 1, well b": 1.05e5, "uninduced reporter light, run 1, well a": 8615}
{"Target gene": "Octalpha2R (alpha2-adrenergic-like octopamine receptor)", "DRSC id": "DRSC15314", "induced reporter light, run 1, well a": 1.77e5, "induced reporter light, run 1, well b": 1.61e5, "control promoter light, run 1, well a": 2.05e5, "control promoter light, run 1, well b": 2.07e5, "uninduced reporter light, run 1, well a": 12180}
{"Target gene": "Fancl", "DRSC id": "DRSC14550", "induced reporter light, run 1, well a": 77485, "induced reporter light, run 1, well b": 93855, "control promoter light, run 1, well a": 61975, "control promoter light, run 1, well b": 58945, "uninduced reporter light, run 1, well a": 3400}
{"Target gene": "mask (multiple ankyrin repeats single KH domain)", "DRSC id": "DRSC15370", "induced reporter light, run 1, well a": 85335, "induced reporter light, run 1, well b": 80475, "control promoter light, run 1, well a": 97210, "control promoter light, run 1, well b": 97810, "uninduced reporter light, run 1, well a": 8482}
{"Target gene": "mask (multiple ankyrin repeats single KH domain)", "DRSC id": "DRSC16005", "induced reporter light, run 1, well a": 52675, "induced reporter light, run 1, well b": 53300, "control promoter light, run 1, well a": 79800, "control promoter light, run 1, well b": 98360, "uninduced reporter light, run 1, well a": 5920}
{"Target gene": "mask (multiple ankyrin repeats single KH domain)", "DRSC id": "DRSC16018", "induced reporter light, run 1, well a": 38900, "induced reporter light, run 1, well b": 51570, "control promoter light, run 1, well a": 58005, "control promoter light, run 1, well b": 65975, "uninduced reporter light, run 1, well a": 5255}
{"Target gene": "CG14984", "DRSC id": "DRSC08442", "induced reporter light, run 1, well a": 1.49e5, "induced reporter light, run 1, well b": 1.21e5, "control promoter light, run 1, well a": 1.65e5, "control promoter light, run 1, well b": 1.54e5, "uninduced reporter light, run 1, well a": 6155}
{"Target gene": "CG15210", "DRSC id": "DRSC19656", "induced reporter light, run 1, well a": 1.06e5, "induced reporter light, run 1, well b": 84590, "control promoter light, run 1, well a": 1.13e5, "control promoter light, run 1, well b": 1.05e5, "uninduced reporter light, run 1, well a": 7940}
{"Target gene": "Rab30", "DRSC id": "DRSC03137", "induced reporter light, run 1, well a": 1.44e5, "induced reporter light, run 1, well b": 1.27e5, "control promoter light, run 1, well a": 1.65e5, "control promoter light, run 1, well b": 1.75e5, "uninduced reporter light, run 1, well a": 9585}
{"Target gene": "CG15207 (retired record)", "DRSC id": "DRSC19653", "induced reporter light, run 1, well a": 1.68e5, "induced reporter light, run 1, well b": 1.13e5, "control promoter light, run 1, well a": 2.81e5, "control promoter light, run 1, well b": 2.14e5, "uninduced reporter light, run 1, well a": 9142}
{"Target gene": "CG7860", "DRSC id": "DRSC20060", "induced reporter light, run 1, well a": 1.95e5, "induced reporter light, run 1, well b": 1.70e5, "control promoter light, run 1, well a": 2.34e5, "control promoter light, run 1, well b": 2.06e5, "uninduced reporter light, run 1, well a": 11960}
{"Target gene": "CG15914", "DRSC id": "DRSC19739", "induced reporter light, run 1, well a": 71425, "induced reporter light, run 1, well b": 58820, "control promoter light, run 1, well a": 75610, "control promoter light, run 1, well b": 59430, "uninduced reporter light, run 1, well a": 8930}
